In PubChem BioAssay one finds remaining activity data, which are given here for 1 compound.

In the assay the test system is Aerobactin synthetase IucA (Klebsiella pneumoniae, hypervirulent). In words: biochemical IucA inhibition screen of LOPAC library by absorbance (AID 1346212).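 Also: 100% = no compound wells and 0% = no enzyme wells.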 As to conditions: IucA enzyme assay, absorbance (OD) readout; hits give low values;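 tested at 8 µM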.

The list shows a part of the results, in another mix than the full data. Calls of active or inactive are those of the source. No rule for the calls is given here.

For orientation: remaining activity means the share of the control activity or signal that is left under treatment. As to `CN1C2CCC1CC(OC(=O)C(O)c1ccccc1)C2` (stereo unspecified), the remaining activity was inactive: 94.1%.
